We go through one substance from paper PMC11269292.

Chains of the proteins cited; added tags and fusions are not shown.
UniProt Q15165: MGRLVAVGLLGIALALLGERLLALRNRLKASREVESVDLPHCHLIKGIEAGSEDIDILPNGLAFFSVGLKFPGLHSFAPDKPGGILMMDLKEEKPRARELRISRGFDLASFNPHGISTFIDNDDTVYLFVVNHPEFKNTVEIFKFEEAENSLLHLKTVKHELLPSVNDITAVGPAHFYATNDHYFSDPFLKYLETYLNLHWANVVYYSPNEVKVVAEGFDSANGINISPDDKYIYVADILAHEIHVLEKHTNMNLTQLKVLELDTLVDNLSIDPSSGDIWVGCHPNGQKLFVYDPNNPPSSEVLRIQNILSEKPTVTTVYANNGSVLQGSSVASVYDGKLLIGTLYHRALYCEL

The target of this test is T1, ASGR1-3×Flag (asialoglycoprotein receptor 1, from pEF1a-ASGR1-3×Flag-IRES-GFP) (human) (UniProt P07306).
T1 sequence: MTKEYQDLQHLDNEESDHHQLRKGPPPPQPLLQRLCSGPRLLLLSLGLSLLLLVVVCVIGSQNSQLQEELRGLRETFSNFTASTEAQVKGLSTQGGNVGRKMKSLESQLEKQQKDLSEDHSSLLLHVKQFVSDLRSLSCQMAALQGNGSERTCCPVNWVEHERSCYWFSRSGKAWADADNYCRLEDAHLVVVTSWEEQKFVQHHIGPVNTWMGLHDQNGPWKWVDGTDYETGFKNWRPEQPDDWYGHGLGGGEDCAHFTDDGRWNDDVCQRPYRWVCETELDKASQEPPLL
Put plainly: co-IP; HEK293T co-transfected with HA-tagged PON2 (or its truncations) and Flag-tagged ASGR1; precipitated with Flag antibody (ASGR1 as bait); western blot for PON2 and ASGR1.

These are yes or no findings as the source states them, for the method shown. In cells and extracts the contact can be indirect. Some binding calls cover weakened binding; strength is not graded here. Tags and fused reporters may be left off the sequences shown.

Turning to “PON2-3×HA (paraoxonase-2, from pEF1a-PON2-3×HA-SV40-Puro) (from UniProt Q15165 1-354)”, the binding result was “binds”.
